For one substance, binding results are on record in article doi:10.1101/2020.01.10.901496.

In this test the target is NISP (AT4G30240) full length, Gal4 fusions for the yeast two-hybrid assay (Arabidopsis thaliana) (UniProt F4JPK7). The test is described as follows: two-hybrid.

These are yes or no findings as the source states them, for the method shown. Binding calls can cover weak binding; strength is not graded here.

“NSP-interacting GTPase (NIG), Gal4 activation domain fusion for the yeast two-hybrid assay (from UniProt F4JT06)”: the binding result is listed as “binds”.
